According to patent US20220409617A1, “Drug Formulations and Methods of Treatment for Metabolic Disorders” (The Regents of the University of California, priority 2019, published 2022):

System: mouse embryonic fibroblasts (MEFs)
Assay type: cell-based
Conditions: 3 h pre-treatment then palmitate 250 μM 3 h, 893 5 μM, myriocin 10 μM, fumonisin B1 30 μM, NAV-2729 12.5 μM, YM201636 800 nM, celastrol 500 nM

Structure (SMILES): Nc1ccc(C(=O)Nc2cccc(-c3nc(N4CCOCC4)c4oc5ncccc5c4n3)c2)cn1 [YM201636, reference compound]
- Protection from palmitate-induced mitochondrial fragmentation (aspect ratio, branch length, roundness): partial protection from palmitate-induced mitochondrial fragmentation
